Results are given in words; binding and its absence hold for the method and conditions named. Some results given as binding are weak or reduced against the parent protein; the word gives no strength.

Protein sequences, listed by entry. Tags and fused reporters are not part of them.
UniProt Q92878: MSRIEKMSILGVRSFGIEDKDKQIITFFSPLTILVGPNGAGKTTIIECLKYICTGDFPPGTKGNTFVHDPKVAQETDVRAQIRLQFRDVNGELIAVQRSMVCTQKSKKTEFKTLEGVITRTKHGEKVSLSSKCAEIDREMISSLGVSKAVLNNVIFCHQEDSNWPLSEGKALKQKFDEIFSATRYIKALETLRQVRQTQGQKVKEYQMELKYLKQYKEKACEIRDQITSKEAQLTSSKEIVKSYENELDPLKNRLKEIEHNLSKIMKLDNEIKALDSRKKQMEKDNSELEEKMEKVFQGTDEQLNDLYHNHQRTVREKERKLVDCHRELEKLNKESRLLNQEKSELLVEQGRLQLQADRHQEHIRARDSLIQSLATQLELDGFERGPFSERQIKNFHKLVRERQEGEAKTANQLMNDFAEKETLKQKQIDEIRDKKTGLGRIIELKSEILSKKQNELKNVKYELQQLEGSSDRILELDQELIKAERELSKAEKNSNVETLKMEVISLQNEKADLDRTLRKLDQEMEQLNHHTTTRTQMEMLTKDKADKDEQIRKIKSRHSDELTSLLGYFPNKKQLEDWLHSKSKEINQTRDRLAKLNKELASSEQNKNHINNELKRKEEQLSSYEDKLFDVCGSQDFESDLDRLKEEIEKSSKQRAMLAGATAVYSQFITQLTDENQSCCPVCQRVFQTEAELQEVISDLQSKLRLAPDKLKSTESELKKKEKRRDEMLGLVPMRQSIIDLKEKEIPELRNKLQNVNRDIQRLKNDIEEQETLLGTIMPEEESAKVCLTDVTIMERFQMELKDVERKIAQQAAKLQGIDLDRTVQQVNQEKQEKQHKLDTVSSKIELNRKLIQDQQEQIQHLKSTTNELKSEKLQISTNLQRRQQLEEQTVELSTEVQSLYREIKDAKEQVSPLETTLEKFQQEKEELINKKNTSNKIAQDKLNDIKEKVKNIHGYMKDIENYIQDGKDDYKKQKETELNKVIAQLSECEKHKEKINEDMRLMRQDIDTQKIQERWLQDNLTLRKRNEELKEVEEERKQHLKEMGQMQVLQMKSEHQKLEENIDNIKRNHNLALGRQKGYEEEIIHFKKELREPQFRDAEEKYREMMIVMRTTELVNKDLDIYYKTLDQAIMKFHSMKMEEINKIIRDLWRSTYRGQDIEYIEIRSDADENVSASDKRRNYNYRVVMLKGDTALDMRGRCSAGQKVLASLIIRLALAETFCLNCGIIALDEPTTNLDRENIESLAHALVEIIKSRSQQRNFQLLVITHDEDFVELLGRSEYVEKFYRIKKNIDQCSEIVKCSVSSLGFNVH

Common to all, as to assay: LacR/LacO nuclear tethering assay; U2OS-LacO#13 cells transfected 24 h with an mCherry-LacR bait (tethered at the LacO array) and a GFP-tagged prey; fixed, confocal microscopy; ratio of GFP fluorescence inside the mCherry dot to the rest of the nucleus
In one assay the target is T1, mCherry-LacR-MITF (human, UniProt O75030-9 1-419).
T1 construct: MITF, human; In the self-association test the second copy was MITF-GFP (pEGFP-C1-MITF, Ngeow et al. 2018) in place of mCherry-LacR; also called LacR-mCherry-MITF; MITF WT; source: U2OS-LacO#13 cells, transfected, in cells; not shown: mCherry-LacR, N-terminal, kept
T1 sequence (looked up): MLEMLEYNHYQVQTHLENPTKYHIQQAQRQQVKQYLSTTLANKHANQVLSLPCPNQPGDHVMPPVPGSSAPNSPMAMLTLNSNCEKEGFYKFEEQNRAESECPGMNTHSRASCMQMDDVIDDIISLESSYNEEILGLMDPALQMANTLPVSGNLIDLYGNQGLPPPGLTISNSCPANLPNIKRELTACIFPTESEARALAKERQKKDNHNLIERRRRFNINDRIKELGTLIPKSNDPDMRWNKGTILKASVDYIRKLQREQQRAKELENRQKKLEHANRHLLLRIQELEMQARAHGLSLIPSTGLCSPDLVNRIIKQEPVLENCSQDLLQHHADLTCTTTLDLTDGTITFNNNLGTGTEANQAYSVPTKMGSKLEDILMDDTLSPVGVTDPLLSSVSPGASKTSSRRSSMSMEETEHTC

Assay [1] addresses MITF-E318K (nuclear tethering assay) (human) (UniProt O75030).
Assay [2] has as its target MITF-S325A (nuclear tethering assay) (human) (UniProt O75030).
The target of assay [3] is MITF-S325E (nuclear tethering assay) (human) (UniProt O75030).

RAD50-GFP (from UniProt Q92878 1-1312): the binding entry with mCherry-LacR-MITF was “binds”.

B1: NBS1-GFP (natural protein, UniProt O60934 1-754, looked up)
chain: MWKLLPAAGPAGGEPYRLLTGVEYVVGRKNCAILIENDQSISRNHAVLTANFSVTNLSQTDEIPVLTLKDNSKYGTFVNEEKMQNGFSRTLKSGDGITFGVFGSKFRIEYEPLVACSSCLDVSGKTALNQAILQLGGFTVNNWTEECTHLVMVSVKVTIKTICALICGRPIVKPEYFTEFLKAVESKKQPPQIESFYPPLDEPSIGSKNVDLSGRQERKQIFKGKTFIFLNAKQHKKLSSAVVFGGGEARLITEENEEEHNFFLAPGTCVVDTGITNSQTLIPDCQKKWIQSIMDMLQRQGLRPIPEAEIGLAVIFMTTKNYCDPQGHPSTGLKTTTPGPSLSQGVSVDEKLMPSAPVNTTTYVADTESEQADTWDLSERPKEIKVSKMEQKFRMLSQDAPTVKESCKTSSNNNSMVSNTLAKMRIPNYQLSPTKLPSINKSKDRASQQQQTNSIRNYFQPSTKKRERDEENQEMSSCKSARIETSCSLLEQTQPATPSLWKNKEQHLSENEPVDTNSDNNLFTDTDLKSIVKNSASKSHAAEKLRSNKKREMDDVAIEDEVLEQLFKDTKPELEIDVKVQKQEEDVNVRKRPRMDIETNDTFSDEAVPESSKISQENEIGKKRELKEDSLWSAKEISNNDKLQDDSEMLPKKLLLTEFRSLVIKNSTSRNPSGINDDYGQLKNFKKFKKVTYPGAGKLPHIIGGSDLIAHHARKNTELEEWLRQEMEVQNQHAKEESLADDLFRYNPYLKRRR
notes: NBS1 (nibrin), component of the MRN complex; plasmid pcDNA3.1(+)-C-eGFP-NBS1 from GenScript; also called GFP-NBS1; pcDNA3.1(+)-C-eGFP-NBS1; source: U2OS-LacO#13 cells, transfected, in cells; not shown: eGFP, C-terminal, kept
B1: the binding entry in assay [1] is “binds”; in assay [2], “binds weakly”; in assay [3], “binds”.

The record behind these values is article doi:10.1101/2023.04.21.537819, “DNA damage-induced interaction between a lineage addiction oncogenic transcription factor and the MRN complex shapes a tissue-specific DNA Damage Response and cancer predisposition” (bioRxiv, 2023).
